PubChem BioAssay AID1259254, NCATS – 2017
In all, the deposit lists about 59,000 reagents; shown is a random part of them. Of all reagents, about 1,550 (2.6%) were called active. 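G2 share is only a proxy for re-replication; each gene was hit by three separate siRNAs, and active genes were retested.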 Raw values vary from plate to plate and are shown uncorrected. The numbers tell different reagents against one gene apart. Not stated in the record: the amount of reagent.

Assay: 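Finding genes that stop cells copying their DNA twice in one cycle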 (primary screen)
System: human HCT116 colorectal cancer cells
Reagents: single siRNA against human genes
Time to read-out: 3 days
Detection: 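Nuclei stained with Hoechst and imaged; cell-cycle phase assigned by DNA content; G2 share scaled per plate, non-targeting siRNA 0%, GMNN siRNA 100%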
Direction: G2 robust z-score and G2 cells, % of GMNN control: higher = more G2 cells, more excess DNA replication; raw share of cells in G2: higher = larger share of cells with G2 DNA content
Active means: 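Active siRNAs have a G2 robust z of 5 or more median absolute deviations over the median, which in these data means about 38% or higher of GMNN control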

gene,reagent,G2 robust z-score,"G2 cells, % of GMNN control",raw share of cells in G2 (%),call
LINC02860,1,-1.22,-5.6,1.56,inactive
LINC02860,2,-0.157,1.86,4.32,inactive
LINC02860,3,-0.261,1.13,3.48,inactive
CHMP5,1,0.141,3.96,5.71,inactive
CHMP5,2,0.928,9.5,10.3,inactive
CHMP5,3,4.59,35.3,17.3,inactive
TMCC3,1,-0.808,-2.71,3.28,inactive
TMCC3,2,2.41,19.9,14,inactive
TMCC3,3,0.257,4.78,4.54,inactive
SYNE3,1,-0.356,0.466,3.77,inactive
SYNE3,2,1.15,11.1,6.67,inactive
SYNE3,3,-0.583,-1.14,2.4,inactive
BTBD10,1,0.624,7.36,7.51,inactive
BTBD10,2,-1.03,-4.26,3.66,inactive
BTBD10,3,-0.347,0.524,4.38,inactive
DHX9,1,-0.105,2.23,5.81,inactive
DHX9,2,0.481,6.35,6.28,inactive
DHX9,3,2.48,20.4,12.2,inactive
SLC27A4,1,-0.39,0.224,5.79,inactive
SLC27A4,2,0.143,3.98,5.13,inactive
SLC27A4,3,-0.43,-0.06,6.45,inactive
HOXA6,1,-0.112,2.18,6.51,inactive
HOXA6,2,4.58,35.2,17.1,inactive
HOXA6,3,0.943,9.6,8.53,inactive
NDUFA5,1,-0.542,-0.849,2.92,inactive
NDUFA5,2,-0.804,-2.69,4.32,inactive
NDUFA5,3,-0.853,-3.03,4.27,inactive
CHD2,1,-0.166,1.8,4.72,inactive
CHD2,2,-0.319,0.722,5.26,inactive
CHD2,3,-1.18,-5.35,3.05,inactive

Taken from above:
Under “G2 robust z-score”, NDUFA5 #2 has -0.804
TMCC3 #2, raw share of cells in G2 (%): 14
For “G2 cells, % of GMNN control”, CHD2 #1 has 1.8
Result for LINC02860 #3 in “G2 robust z-score”: -0.261
DHX9 #2, G2 cells, % of GMNN control → 6.35
Value for SYNE3 #2 in “raw share of cells in G2 (%)”: 6.67

The results go on:
gene,reagent,G2 robust z-score,"G2 cells, % of GMNN control",raw share of cells in G2 (%),call
NTS,1,0.515,6.59,5.45,inactive
NTS,2,-0.555,-0.936,4.37,inactive
NTS,3,2.77,22.5,13.7,inactive
PAICS,1,1.67,14.7,12.3,inactive
PAICS,2,-0.333,0.624,4.04,inactive
PAICS,3,-1,-4.09,3.92,inactive
PAICS,4,1.38,12.7,8.47,inactive
PAICS,5,1.71,15,8.66,inactive
PAICS,6,0.109,3.73,4.23,inactive
IL23R,1,0.715,8,8.06,inactive
IL23R,2,-0.433,-0.077,4.67,inactive
IL23R,3,1.02,10.1,10.8,inactive
LRIG3,1,-0.903,-3.38,3.2,inactive
LRIG3,2,1.03,10.2,9.34,inactive
LRIG3,3,-0.837,-2.92,4.31,inactive
TNFRSF10A,1,-0.419,0.0195,4.71,inactive
TNFRSF10A,2,-0.739,-2.23,4.48,inactive
TNFRSF10A,3,0.0424,3.27,6.02,inactive
HDDC3,1,-0.0499,2.62,5.65,inactive
HDDC3,2,-0.208,1.5,4.76,inactive
HDDC3,3,-0.712,-2.04,2.88,inactive
NPHS2,1,-1,-4.09,2.74,inactive
NPHS2,2,2.78,22.5,15.1,inactive
NPHS2,3,-1.23,-5.71,2.6,inactive
LMO3,1,0.32,5.22,4.63,inactive
LMO3,2,-1.18,-5.33,3.5,inactive
LMO3,3,-0.591,-1.19,3.26,inactive
EFCAB13,1,0.72,8.03,7.31,inactive
EFCAB13,2,-0.0138,2.87,4.19,inactive
EFCAB13,3,0.813,8.69,4.36,inactive
GFOD2,1,1.43,13,9.6,inactive
GFOD2,2,-1.4,-6.91,1.69,inactive
GFOD2,3,2.84,22.9,15,inactive
CDC25B,1,0.859,9.01,7.72,inactive
CDC25B,2,-0.201,1.55,4.77,inactive
CDC25B,3,2.06,17.5,8.75,inactive
SERTM1,1,0.927,9.49,7.26,inactive
SERTM1,2,0.592,7.13,6.35,inactive
SERTM1,3,-0.885,-3.26,3.44,inactive
YPEL3,1,2.99,24,12.1,inactive
YPEL3,2,1.68,14.8,7.84,inactive
YPEL3,3,-0.781,-2.52,1.64,inactive
SENP6,1,-0.36,0.438,4.33,inactive
SENP6,2,-0.00717,2.92,4.94,inactive
SENP6,3,-0.268,1.08,6.65,inactive
GMPPA,1,0.0738,3.49,5.34,inactive
GMPPA,2,0.267,4.85,5.58,inactive
GMPPA,3,0.429,5.99,8.88,inactive
SHFL,1,-0.662,-1.69,2.6,inactive
SHFL,2,1.18,11.2,8.85,inactive
SHFL,3,2.53,20.8,12.7,inactive
HLA-DOB,1,4.1,31.8,20.2,inactive
HLA-DOB,2,-0.717,-2.08,3.33,inactive
HLA-DOB,3,-0.591,-1.19,3.06,inactive
ZBTB9,1,1.03,10.2,7.27,inactive
ZBTB9,2,-0.156,1.87,3.77,inactive
ZBTB9,3,-0.26,1.14,3.56,inactive
